Source: PubChem BioAssay AID1487 (National Center for Advancing Translational Sciences (NCATS), 2009)
Some of the results follow. These are further read-outs of the screen, such as a control signal, another cell line or another target. No call is given for them. Compounds called inactive in the main read-out are mostly missing here. Words in brackets tell the shape of the fitted curve; partial curves, single points and poor fits give uncertain potencies.

Assay: qHTS Assay for Modulators of Lamin A Splicing
Conditions: HeLa LMNA splicing GFP/RFP minigene ratio, 48 h
Outline: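 Read-out is the ratio of GFP to DsRed2 object intensity, acquired by 488 nm laser-scanning cytometry on HeLa lamin A-EGFP minigene reporter cells. Compound incubation 48 hrs at 37 °C in Opti-MEM with 2% FBS; DMSO 0.5% final.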

[1] = measured here: GFP splicing reporter channel
[2] = measured here: RFP viability control channel

SMILES | AC50 [1] | AC50 [2]
COc1c2occc2cc2ccc(=O)oc12 | 2.24 µM [falling, single point] | –
O=C(CSc1nc2ccc([N+](=O)[O-])cc2s1)NC1CCS(=O)(=O)C1 (centres undefined) | – | 11.2 µM [rising, single point]
Oc1ccc(N=Cc2ccc(O)c(O)c2)cc1 | 35.5 µM [falling, single point] | 28.2 µM [falling, single point]
N#Cc1c(-c2ccc(Cl)cc2)ccn2nc(CCC(=O)O)nc12 | 35.5 µM [rising, single point] | 35.5 µM [rising, single point]
COc1ccc(N2CCN(C(=O)c3ccc(NS(=O)(=O)c4cccc(F)c4)cc3)CC2)cc1 | – | 31.6 µM [rising, single point]
O=C(NC1CCN(Cc2ccccc2)CC1)c1cccc(S(=O)(=O)Nc2cc(C(F)(F)F)ccc2Cl)c1 | 0.112 µM [rising, full curve, poor fit] | 0.126 µM [rising, full curve, poor fit]
CN(C)/C=C1\C(=O)N(c2ccc([N+](=O)[O-])cc2)N=C1c1ccccc1 | 14.1 µM [rising, single point] | 12.6 µM [rising, partial curve]
Cc1cc(C)cc(S(=O)(=O)Nc2cccc(-c3ccc(N4CCOCC4)nn3)c2)c1 | 0.126 µM [falling, full curve, poor fit] | 31.6 µM [falling, partial curve]
CC(=O)c1ccc(NC(=O)Cn2c(=O)c3cccn3c3ccccc32)cc1 | 35.5 µM [falling, single point] | –
COc1ccc(-c2nc(-c3ccccc3)c(-c3cc([N+](=O)[O-])ccc3C)[nH]2)cc1O | 35.5 µM [falling, single point] | 22.4 µM [falling, partial curve]
Oc1[nH]c2ccccc2c1C1=NCCCCC1 | – | 10 µM [falling, partial curve, poor fit]
CCN1CCN(c2ccc(NC(=O)c3ccc([N+](=O)[O-])o3)cc2Cl)CC1 | 8.91 µM [falling, partial curve, poor fit] | 35.5 µM [falling, single point]
O=C(CSc1nnc2n1CCCN2C(=S)Nc1ccc(Cl)cc1)c1ccccc1 | – | 25.1 µM [rising, single point]
COc1ccc(CC(=O)Nc2nnc(SCC(=O)NCc3ccco3)s2)cc1OC | – | 2.51 µM [rising, full curve, poor fit]
Cc1oc(-c2cc(Cl)cc(Cl)c2)cc1C(=O)NCCc1ccccc1 | – | 0.891 µM [rising, full curve, poor fit]
Cn1c(=O)oc2cc(S(=O)(=O)Nc3ccc4c(c3)OCCO4)ccc21 | 14.1 µM [rising, partial curve] | 14.1 µM [rising, partial curve]
c1ccc(-c2csc3ncnc(NCC4COc5ccccc5O4)c23)cc1 (centres undefined) | 12.6 µM [rising, partial curve, poor fit] | 1.41 µM [rising, partial curve]
CC(OC(=O)c1ccccc1NS(=O)(=O)c1cccc(N)c1)C(=O)N(C)Cc1ccccc1 (centres undefined) | – | 35.5 µM [rising, single point]
COc1ccc(N(Cc2ccccc2)S(=O)(=O)c2ccc(C)cc2)cc1 | 14.1 µM [falling, partial curve] | 25.1 µM [falling, partial curve]
CC(=O)c1ccc(NC(=S)Nc2ccn(Cc3ccc(Br)cc3)n2)cc1 | – | 22.4 µM [rising, partial curve, poor fit]
Cc1nc2ccccc2n1CC(=O)NCc1ccccc1 | 17.8 µM [rising, single point] | 20 µM [rising, single point]
CCCCNC(=S)N(Cc1ccco1)Cc1cc2cc3c(cc2[nH]c1=O)OCCO3 | 17.8 µM [rising, single point] | 35.5 µM [rising, single point]
Fc1ccc(-c2cc3nc4c(c(N5CCOCC5)n3n2)CCCC4)cc1 | 15.8 µM [rising, single point] | 28.2 µM [rising, single point]
CC1=CC(C)(C)N(C(=O)CSc2nnc(-c3ccccc3)o2)c2ccc(C)cc21 | 14.1 µM [rising, partial curve] | 25.1 µM [rising, single point]
CCOC(=O)c1cnc(NCc2ccccc2OC)c2ccccc12 | 0.631 µM [rising, full curve, poor fit] | 20 µM [rising, partial curve]
COc1ccc(S(=O)(=O)N2CCCCC2)cc1C(=O)Nc1cccc(C(F)(F)F)c1 | – | 2.51 µM [falling, partial curve]
O=C(OCCN(C1=NS(=O)(=O)c2ccccc21)c1ccc(Cl)cc1)c1ccco1 | 12.6 µM [rising, single point] | 15.8 µM [rising, single point]

As a short view, part of the list above.
SMILES | AC50 [1] | AC50 [2]
Oc1[nH]c2ccccc2c1C1=NCCCCC1 | – | 10 µM [falling, partial curve, poor fit]
CCN1CCN(c2ccc(NC(=O)c3ccc([N+](=O)[O-])o3)cc2Cl)CC1 | 8.91 µM [falling, partial curve, poor fit] | 35.5 µM [falling, single point]

Later entries.

SMILES | AC50 [1] | AC50 [2]
COc1ccc(-c2ccc(=O)n(CC(=O)Nc3ccc(C)cc3C)n2)cc1 | 12.6 µM [falling, partial curve] | 0.0224 µM [falling, full curve, poor fit]
CCCCn1nnnc1NCc1ccc(OC)c(OC)c1OC | – | 15.8 µM [rising, single point]
Cc1cccc(-c2noc(CN(C(=O)c3ccc4c(c3)OCO4)C(C)C)n2)c1 | – | 31.6 µM [rising, single point]
C=CCNC(=O)c1ccc(C(=O)c2ccccc2)cc1 | – | 10 µM [rising, single point]
CC(C)c1ccc(N2C(=O)CC(Sc3nc4ccccc4o3)C2=O)cc1 (centres undefined) | 17.8 µM [falling, partial curve] | 22.4 µM [falling, single point]
COc1ccccc1N1CCN(C(=O)c2ccc3c(Cl)c4c(nc3c2)CCCC4)CC1 | – | 17.8 µM [rising, partial curve]
O=c1[nH]nc(Cc2ccc3ccccc3n2)c2ccccc12 | 15.8 µM [rising, single point] | 14.1 µM [rising, partial curve]
CN(Cc1cnc2nc(N)nc(N)c2n1)c1ccc(C(=O)N[C@H](CCC(=O)O)C(=O)O)cc1 | 0.00398 µM [falling, full curve] | –
Cc1n[nH]c(C)c1Sc1ccccc1N | – | 2.82 µM [rising, partial curve]
Cc1cc(C(=O)OCC(=O)c2cccs2)c2ccccc2n1 | 3.98 µM [falling, partial curve, poor fit] | –
Cc1cccc(C(=O)N[C@H](C(=O)Nc2ncc(C)s2)C(C)C)c1 | – | 35.5 µM [falling, single point]
CCN(CC)C(=O)c1ccc(Cn2cc([N+](=O)[O-])cn2)o1 | 12.6 µM [falling, partial curve, poor fit] | 44.7 µM [falling, partial curve, poor fit]
COc1ccc(NC(=O)Nc2cccnc2)c(OC)c1 | 0.0316 µM [falling, full curve, poor fit] | –
CC(NC(=O)c1ccccc1NC(=O)c1nsc2ccccc12)c1ccccc1 (centres undefined) | 4.47 µM [rising, partial curve] | 6.31 µM [rising, single point]
CCCCCCCCCCS(=O)(=O)N/N=C/c1ccc(O)cc1 | 28.2 µM [rising, single point] | 35.5 µM [rising, single point]
Fc1cc(Br)ccc1Nc1c2c(nc3nc(-c4cccs4)nn13)CCCC2 | 1.41 µM [rising, partial curve, poor fit] | 1.41 µM [rising, partial curve, poor fit]
CC1CCCN(c2ccc(F)cc2N)C1 (centres undefined) | 5.01 µM [rising, single point] | –
O=C(O)c1ccc(C2NCC(c3ccccc3Cl)c3c2[nH]c2ccccc32)cc1 (centres undefined) | 20 µM [rising, single point] | –
O=C(O)c1ccccc1C(=O)Nc1ccc(Oc2cccc3ccccc23)cc1 | 0.0447 µM [falling, full curve, poor fit] | 0.0794 µM [falling, full curve, poor fit]
CS(=O)(=O)N(CC(=O)N1CCN(Cc2ccc3c(c2)OCO3)CC1)Cc1ccc(Cl)cc1 | 25.1 µM [rising, partial curve, poor fit] | 17.8 µM [rising, single point]
CCOC(=O)c1c(-c2ccc(C)o2)csc1NC(=O)CSc1nnc(C)s1 | 31.6 µM [rising, single point] | –
CCN(CC)c1ccc(N=Cc2ccc([N+](=O)[O-])o2)cc1 | – | 3.98 µM [rising, partial curve]
O=C(COc1cccnc1[N+](=O)[O-])Nc1ccccc1Sc1ccccc1 | 31.6 µM [falling, partial curve] | 20 µM [falling, partial curve]
CCN(CC)C(=O)Oc1ccc2c(=O)c(-c3ccc(OC)cc3)coc2c1 | – | 12.6 µM [rising, partial curve]
CCOc1cc(/C=C2/C(=N)N3OC(C)=CC3=NC2=O)ccc1OCCOc1ccccc1 | – | 12.6 µM [rising, single point]
Cc1ccc2cc(CN(Cc3nnnn3C3CCCC3)C3CCCCC3)c(=O)[nH]c2c1C | 5.62 µM [rising, single point] | –

Part of the list above in a different format:
SMILES,AC50 [1],AC50 [2]
O=C(CSc1nnc2n1CCCN2C(=S)Nc1ccc(Cl)cc1)c1ccccc1,–,"25.1 µM [rising, single point]"
COc1ccccc1N1CCN(C(=O)c2ccc3c(Cl)c4c(nc3c2)CCCC4)CC1,–,"17.8 µM [rising, partial curve]"
